# Measurements taken from the supplement of paper PMC10849652.
# Protein sequences, listed by entry. Tags and fused reporters are not part of them. Lines headed by an entry give the natural chain unless they say otherwise; changes in a name come on top.
# UniProt Q8WUD6: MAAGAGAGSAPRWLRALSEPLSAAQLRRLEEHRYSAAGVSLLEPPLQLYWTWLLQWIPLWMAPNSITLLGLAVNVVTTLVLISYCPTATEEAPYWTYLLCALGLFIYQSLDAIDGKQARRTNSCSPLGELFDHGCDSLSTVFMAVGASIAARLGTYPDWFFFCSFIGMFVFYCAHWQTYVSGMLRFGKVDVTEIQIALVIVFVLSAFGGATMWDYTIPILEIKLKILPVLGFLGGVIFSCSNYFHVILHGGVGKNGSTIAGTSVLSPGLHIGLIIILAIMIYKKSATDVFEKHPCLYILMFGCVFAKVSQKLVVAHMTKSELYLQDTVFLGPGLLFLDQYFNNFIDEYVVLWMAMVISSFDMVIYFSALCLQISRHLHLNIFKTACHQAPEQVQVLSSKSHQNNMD
# UniProt P49759: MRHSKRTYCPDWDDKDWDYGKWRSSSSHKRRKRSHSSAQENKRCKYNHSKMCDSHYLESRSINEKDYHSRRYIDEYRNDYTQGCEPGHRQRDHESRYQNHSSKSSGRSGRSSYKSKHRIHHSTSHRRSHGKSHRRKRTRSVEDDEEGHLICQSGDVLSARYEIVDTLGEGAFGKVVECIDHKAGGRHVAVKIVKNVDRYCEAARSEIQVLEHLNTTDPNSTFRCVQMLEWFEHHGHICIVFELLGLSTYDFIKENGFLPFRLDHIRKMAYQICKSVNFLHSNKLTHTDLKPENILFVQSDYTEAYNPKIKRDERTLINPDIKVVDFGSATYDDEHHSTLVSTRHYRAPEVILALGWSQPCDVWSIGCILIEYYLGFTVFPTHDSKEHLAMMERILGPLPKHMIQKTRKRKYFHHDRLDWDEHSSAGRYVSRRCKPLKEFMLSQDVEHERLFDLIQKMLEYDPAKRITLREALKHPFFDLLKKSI
# UniProt Q9NX76: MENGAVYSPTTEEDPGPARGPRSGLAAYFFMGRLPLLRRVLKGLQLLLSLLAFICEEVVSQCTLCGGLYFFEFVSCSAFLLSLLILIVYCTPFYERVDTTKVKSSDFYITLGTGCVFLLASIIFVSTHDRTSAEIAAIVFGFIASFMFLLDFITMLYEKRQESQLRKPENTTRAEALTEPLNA
# UniProt Q9Y4C5: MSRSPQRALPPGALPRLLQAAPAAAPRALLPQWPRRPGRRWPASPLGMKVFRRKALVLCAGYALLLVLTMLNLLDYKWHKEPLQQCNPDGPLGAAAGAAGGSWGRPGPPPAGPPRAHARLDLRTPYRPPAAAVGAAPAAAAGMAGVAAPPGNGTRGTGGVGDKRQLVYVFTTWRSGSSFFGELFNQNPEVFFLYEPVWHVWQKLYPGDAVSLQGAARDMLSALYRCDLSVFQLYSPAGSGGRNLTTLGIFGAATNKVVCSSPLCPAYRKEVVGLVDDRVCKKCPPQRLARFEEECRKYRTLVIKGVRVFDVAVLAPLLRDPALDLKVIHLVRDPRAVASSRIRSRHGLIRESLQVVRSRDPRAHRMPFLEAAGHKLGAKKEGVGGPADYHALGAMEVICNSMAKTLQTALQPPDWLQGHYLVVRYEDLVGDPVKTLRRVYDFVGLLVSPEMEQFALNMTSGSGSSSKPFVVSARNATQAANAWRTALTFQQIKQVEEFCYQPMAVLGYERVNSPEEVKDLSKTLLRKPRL
# UniProt Q9UBY8, whole entry, looked up: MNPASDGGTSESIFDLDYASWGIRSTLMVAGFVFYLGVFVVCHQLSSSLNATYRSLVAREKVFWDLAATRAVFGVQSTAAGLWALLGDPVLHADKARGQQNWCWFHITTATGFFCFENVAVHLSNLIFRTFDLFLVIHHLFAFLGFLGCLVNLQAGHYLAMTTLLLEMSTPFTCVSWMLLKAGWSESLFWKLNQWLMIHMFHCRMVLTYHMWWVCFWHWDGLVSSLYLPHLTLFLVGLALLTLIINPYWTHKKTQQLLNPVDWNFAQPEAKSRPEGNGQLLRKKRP
# UniProt P56749: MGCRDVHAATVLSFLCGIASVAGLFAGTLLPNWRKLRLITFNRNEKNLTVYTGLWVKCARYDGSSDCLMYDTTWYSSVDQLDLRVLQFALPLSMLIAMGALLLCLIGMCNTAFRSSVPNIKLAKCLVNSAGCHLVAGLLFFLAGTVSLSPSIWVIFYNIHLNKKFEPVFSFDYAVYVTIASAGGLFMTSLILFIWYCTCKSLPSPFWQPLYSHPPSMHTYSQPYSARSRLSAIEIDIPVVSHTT
# UniProt Q96AJ1: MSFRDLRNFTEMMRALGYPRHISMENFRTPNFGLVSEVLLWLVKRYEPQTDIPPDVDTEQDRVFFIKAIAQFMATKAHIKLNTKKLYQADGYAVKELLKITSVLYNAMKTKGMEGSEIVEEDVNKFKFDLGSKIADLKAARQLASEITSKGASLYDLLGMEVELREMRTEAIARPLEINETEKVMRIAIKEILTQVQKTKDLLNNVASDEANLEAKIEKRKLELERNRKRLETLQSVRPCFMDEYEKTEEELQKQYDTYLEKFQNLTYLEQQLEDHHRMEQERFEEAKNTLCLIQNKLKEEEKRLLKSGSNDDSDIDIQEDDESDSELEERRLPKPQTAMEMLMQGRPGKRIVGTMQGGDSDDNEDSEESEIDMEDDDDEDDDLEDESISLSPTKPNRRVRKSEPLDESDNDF
# UniProt Q9NSE2: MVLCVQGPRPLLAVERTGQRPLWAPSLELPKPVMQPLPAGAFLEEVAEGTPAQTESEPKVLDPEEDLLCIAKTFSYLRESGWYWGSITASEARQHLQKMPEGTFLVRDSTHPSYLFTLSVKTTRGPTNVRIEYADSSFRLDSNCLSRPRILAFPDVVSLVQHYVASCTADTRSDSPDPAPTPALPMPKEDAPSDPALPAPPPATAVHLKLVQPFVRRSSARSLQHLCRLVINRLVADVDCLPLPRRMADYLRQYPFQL
# UniProt Q96EP1: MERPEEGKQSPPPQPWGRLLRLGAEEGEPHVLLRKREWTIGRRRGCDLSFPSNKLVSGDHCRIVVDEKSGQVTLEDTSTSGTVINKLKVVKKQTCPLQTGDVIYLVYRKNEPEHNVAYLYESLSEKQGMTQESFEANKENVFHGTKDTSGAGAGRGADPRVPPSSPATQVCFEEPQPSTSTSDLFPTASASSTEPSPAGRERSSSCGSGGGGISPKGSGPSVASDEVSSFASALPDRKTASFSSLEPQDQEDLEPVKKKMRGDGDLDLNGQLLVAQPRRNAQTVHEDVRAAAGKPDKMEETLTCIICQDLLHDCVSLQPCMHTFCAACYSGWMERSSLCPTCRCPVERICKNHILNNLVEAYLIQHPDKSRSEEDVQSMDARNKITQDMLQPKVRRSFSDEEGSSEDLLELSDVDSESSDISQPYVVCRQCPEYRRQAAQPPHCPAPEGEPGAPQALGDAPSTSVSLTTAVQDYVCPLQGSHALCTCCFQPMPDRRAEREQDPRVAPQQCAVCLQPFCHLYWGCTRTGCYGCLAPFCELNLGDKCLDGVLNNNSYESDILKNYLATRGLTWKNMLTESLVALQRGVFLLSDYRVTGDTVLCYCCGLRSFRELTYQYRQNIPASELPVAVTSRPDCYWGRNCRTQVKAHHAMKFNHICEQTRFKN
# UniProt Q9P2E5: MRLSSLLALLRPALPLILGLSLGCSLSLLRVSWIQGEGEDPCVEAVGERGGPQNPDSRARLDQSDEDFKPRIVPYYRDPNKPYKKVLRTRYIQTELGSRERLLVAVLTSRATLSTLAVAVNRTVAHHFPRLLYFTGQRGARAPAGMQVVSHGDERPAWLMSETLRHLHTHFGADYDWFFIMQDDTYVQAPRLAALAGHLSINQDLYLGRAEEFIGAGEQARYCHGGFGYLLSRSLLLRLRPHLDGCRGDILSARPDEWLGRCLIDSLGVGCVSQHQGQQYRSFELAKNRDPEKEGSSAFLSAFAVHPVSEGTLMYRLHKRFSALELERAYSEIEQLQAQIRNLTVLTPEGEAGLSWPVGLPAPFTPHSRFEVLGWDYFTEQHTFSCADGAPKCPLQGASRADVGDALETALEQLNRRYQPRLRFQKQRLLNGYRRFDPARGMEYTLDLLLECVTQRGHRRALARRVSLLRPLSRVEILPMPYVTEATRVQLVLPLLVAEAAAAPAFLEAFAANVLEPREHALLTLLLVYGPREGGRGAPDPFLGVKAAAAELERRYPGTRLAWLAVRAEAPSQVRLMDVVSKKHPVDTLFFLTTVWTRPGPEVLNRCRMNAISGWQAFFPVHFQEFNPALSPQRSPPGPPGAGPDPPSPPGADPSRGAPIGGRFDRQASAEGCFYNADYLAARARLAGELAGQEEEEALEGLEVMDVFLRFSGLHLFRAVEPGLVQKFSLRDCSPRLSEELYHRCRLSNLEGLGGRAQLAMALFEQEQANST
# UniProt Q5VXU3: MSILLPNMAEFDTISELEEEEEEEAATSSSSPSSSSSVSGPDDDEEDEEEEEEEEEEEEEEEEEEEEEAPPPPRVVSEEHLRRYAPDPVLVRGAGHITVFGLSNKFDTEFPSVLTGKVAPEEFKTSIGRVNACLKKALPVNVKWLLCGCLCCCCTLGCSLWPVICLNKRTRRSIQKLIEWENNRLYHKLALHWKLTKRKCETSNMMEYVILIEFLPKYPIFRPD
# UniProt P33552, whole entry, looked up: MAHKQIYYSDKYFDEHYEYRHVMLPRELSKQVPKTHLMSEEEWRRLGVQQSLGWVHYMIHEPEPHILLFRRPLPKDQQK
# UniProt Q9UBR5: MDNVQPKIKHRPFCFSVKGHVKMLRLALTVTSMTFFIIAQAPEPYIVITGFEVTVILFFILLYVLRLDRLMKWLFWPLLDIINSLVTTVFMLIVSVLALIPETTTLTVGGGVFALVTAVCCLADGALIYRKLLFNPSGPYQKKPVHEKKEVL
# UniProt Q86X95: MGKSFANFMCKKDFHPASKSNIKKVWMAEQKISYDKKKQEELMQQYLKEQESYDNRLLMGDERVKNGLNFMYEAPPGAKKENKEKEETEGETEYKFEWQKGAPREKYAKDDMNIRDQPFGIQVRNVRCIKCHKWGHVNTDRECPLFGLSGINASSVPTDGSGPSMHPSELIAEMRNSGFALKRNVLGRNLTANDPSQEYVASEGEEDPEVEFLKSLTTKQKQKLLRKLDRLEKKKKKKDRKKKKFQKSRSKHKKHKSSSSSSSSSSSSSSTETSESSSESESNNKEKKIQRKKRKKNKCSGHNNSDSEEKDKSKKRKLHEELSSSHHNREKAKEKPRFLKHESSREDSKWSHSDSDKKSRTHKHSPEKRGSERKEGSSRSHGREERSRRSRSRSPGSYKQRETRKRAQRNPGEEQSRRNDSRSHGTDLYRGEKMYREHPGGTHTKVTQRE
# UniProt Q9BQT9: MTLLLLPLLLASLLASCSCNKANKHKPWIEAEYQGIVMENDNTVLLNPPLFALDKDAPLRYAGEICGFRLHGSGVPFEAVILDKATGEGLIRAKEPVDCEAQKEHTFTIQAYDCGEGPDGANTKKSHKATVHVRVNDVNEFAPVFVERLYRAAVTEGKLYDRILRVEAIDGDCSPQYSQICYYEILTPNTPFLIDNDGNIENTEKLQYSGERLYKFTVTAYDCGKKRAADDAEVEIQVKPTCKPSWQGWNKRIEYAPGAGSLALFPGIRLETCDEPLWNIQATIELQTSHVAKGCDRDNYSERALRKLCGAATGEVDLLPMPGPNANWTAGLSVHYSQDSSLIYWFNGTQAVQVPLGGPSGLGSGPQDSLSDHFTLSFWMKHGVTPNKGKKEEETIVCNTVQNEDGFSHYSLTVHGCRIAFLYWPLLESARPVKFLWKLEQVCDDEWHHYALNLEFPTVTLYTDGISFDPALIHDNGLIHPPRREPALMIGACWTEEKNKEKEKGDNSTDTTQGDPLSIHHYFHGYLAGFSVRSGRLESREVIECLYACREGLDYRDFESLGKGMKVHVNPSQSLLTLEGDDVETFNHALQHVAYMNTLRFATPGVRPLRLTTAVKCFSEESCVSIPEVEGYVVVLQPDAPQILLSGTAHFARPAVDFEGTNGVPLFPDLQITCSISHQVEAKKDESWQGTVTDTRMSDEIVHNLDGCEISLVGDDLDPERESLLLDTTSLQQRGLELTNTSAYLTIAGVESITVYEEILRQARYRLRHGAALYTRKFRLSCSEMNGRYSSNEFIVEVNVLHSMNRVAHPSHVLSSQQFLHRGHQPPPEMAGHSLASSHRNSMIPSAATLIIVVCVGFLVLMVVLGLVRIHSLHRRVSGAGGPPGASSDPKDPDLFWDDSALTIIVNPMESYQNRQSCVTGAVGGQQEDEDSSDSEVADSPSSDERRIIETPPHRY
# UniProt P49760, whole entry, looked up: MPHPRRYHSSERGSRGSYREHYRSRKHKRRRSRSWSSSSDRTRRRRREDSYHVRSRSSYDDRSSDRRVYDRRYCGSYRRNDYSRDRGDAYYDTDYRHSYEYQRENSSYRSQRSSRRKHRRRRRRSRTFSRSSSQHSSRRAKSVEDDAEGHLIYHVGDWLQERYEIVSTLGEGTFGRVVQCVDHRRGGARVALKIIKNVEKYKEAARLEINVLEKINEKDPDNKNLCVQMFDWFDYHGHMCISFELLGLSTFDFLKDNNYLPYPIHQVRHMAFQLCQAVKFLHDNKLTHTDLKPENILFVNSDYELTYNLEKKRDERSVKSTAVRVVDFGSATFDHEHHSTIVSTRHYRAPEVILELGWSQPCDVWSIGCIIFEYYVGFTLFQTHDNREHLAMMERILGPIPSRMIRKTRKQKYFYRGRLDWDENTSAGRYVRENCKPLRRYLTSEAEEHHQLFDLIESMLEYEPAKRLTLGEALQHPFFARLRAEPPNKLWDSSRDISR
# The other results are listed elsewhere or left out.
# Compound: C1=CC=C(C=C1)[C@H](COC2=CC3=C(C=C2)NC(=O)N3)NC(=O)C4=CC=CN(C4=O)CC5=CC(=C(C=C5)F)F
# Test: log2 fold change, soluble protein after heating vs DMSO (PISA); higher = thermal stabilisation; K562 lysate, 10 uM; active = over 0.2 and 3.5 SD of the protein, either way, in both replicates (recomputed)
# Outline: (§1)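 A 30 min treatment with 10 μM compound was applied to crude K562 extract at 1 mg/mL protein in PBS pH 7.4 with 1 mM MgCl2. Heating for 3 min spanned 48°C-58°C, after which aliquots were pooled, adjusted to 0.5% NP-40 at 4°C and spun at 21,000xg for 90 min. TMTpro 16plex LC-MS/MS of the supernatant, with channel sums equalised, gave values recorded as log-two fold change in thermal stability against solvent controls, from duplicates.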
row,Target,log2 fold change
1,CHPT1 (UniProt Q8WUD6),inactive: -0.308
2,CLK1 isoform 3 (UniProt P49759),inactive: 0.04
3,CMTM6 (UniProt Q9NX76),inactive: 0.003
4,CHST2 (UniProt Q9Y4C5),inactive: -0.067
5,CLN8 (UniProt Q9UBY8),inactive: -0.215
6,CLDN12 (UniProt P56749),inactive: 0.064

# Compound: CC1=C(SC2=C1C(=N[C@H](C3=NN=C(N32)C)CC(=O)N)C4=CC=C(C=C4)Cl)C
# Test: as above
# Outline: as §1
row,Target,log2 fold change
1,CHPT1 (UniProt Q8WUD6),inactive: -0.031
2,CLK1 isoform 3 (UniProt P49759),inactive: 0.035
3,CMTM6 (UniProt Q9NX76),inactive: -0.087
4,CHST2 (UniProt Q9Y4C5),inactive: -0.128
5,CLN8 (UniProt Q9UBY8),inactive: 0.052
6,CLDN12 (UniProt P56749),inactive: 0.047

# Compound: CC1=C2C(=CC=C1)N=C(N(C2=O)C3=CC=CC=C3C)CN4C=NC5=C(N=CN=C54)N
# Test: as above
# Outline: as §1
row,Target,log2 fold change
1,CKAP2L (UniProt Q8IYA6),inactive: 0.003
2,CHST10 (UniProt O43529),inactive: 0.179
3,CHD9 (UniProt Q3L8U1),inactive: -0.074
4,CLUAP1 (UniProt Q96AJ1),inactive: 0.115
5,"CLIP1, A0A3B3ITA2",inactive: 0.035
6,CISH isoform 3 (UniProt Q9NSE2),inactive: 0.091
7,CHFR (UniProt Q96EP1),inactive: 0.027
8,CMTM4 (UniProt Q8IZR5),inactive: 0.093
9,CLASP1 isoform 4 (UniProt Q7Z460),inactive: 0.056
10,CHPF2 (UniProt Q9P2E5),inactive: 0.14
11,CHIC1 (UniProt Q5VXU3),inactive: 0.032
12,CISD3 (UniProt P0C7P0),inactive: 0.04
13,CLK3 (UniProt P49761),inactive: -0.074
14,CKS2 (UniProt P33552),inactive: -0.135

# Compound: Cc1sc2c(c1C)C(c1ccc(Cl)cc1)=N[C@@H](CC(=O)OC(C)(C)C)c1nnc(C)n1-2
# Test: as above
# Outline: as §1
row,Target,log2 fold change
1,CKAP2L (UniProt Q8IYA6),inactive: 0.068
2,CHD9 (UniProt Q3L8U1),inactive: 0.236
3,CLUAP1 (UniProt Q96AJ1),inactive: 0.099
4,CKLF (UniProt Q9UBR5),inactive: 0.241
5,CIR1 (UniProt Q86X95),inactive: -0.107
6,CHST14 (UniProt Q8NCH0),inactive: 0.09
7,CLSTN3 isoform 2 (UniProt Q9BQT9),inactive: -0.07
8,CMTM6 (UniProt Q9NX76),inactive: -0.07
9,CLK2 (UniProt P49760),inactive: 0.108
10,CHFR (UniProt Q96EP1),inactive: -0.056
11,CHTF18 (UniProt Q8WVB6),inactive: 0.02
12,CHST2 (UniProt Q9Y4C5),inactive: -0.001
13,CHPF2 (UniProt Q9P2E5),inactive: -0.033
14,CLN8 (UniProt Q9UBY8),inactive: -0.198
15,CISD3 (UniProt P0C7P0),inactive: -0.043
16,"CHD4, A0A2R8Y521",inactive: -0.136
17,CLDN12 (UniProt P56749),inactive: -0.083
18,CHCHD5 (UniProt Q9BSY4),inactive: 0.092
19,CLK3 (UniProt P49761),inactive: 0.023
20,CITED2 (UniProt Q99967),inactive: -0.016
